{"source": "PubChem BioAssay AID1159578 (Peter MacCallum Cancer Centre, 2015)", "purpose": "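Genome-wide hunt for genes controlling movement of lymphatic endothelial cells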 (primary screen)", "cell system": "human lymphatic endothelial cells", "reagent": "siRNA pool against human genes, 40 nM", "timing": "48 h after transfection", "read-out": "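High-content imaging of dye-stained cells in a scratch assay measures filled wound area and nuclei per well; duplicate means given as ratio to mock and robust z-score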", "reading the numbers": "migration robust z-score: higher = faster migration into the scratch; nuclei per well: higher = more cells in the well", "hit rule": "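Migration changed when robust z exceeds 2 or falls below -2 and mean nuclei number is at least 3300; otherwise not called changed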", "meaning of the calls": "active = migration changed; inactive = no migration change, or too few cells", "note": "In all, the deposit lists about 18,000 reagents; this is a part drawn at random. In the full data, about 1,030 (5.7%) got an active call. 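Inactive calls also include pools with fewer than 3300 nuclei, whose migration was not assessed.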 Raw values vary from plate to plate and are shown uncorrected. Not all columns of the deposit are shown."}
{"Gene": "SLC7A2", "migration robust z-score": 0.06, "migration class with cell-count check": "migration z between -2 and 2; enough cells", "nuclei per well, duplicate mean": 5618, "call": "inactive"}
{"Gene": "RGS11 (regulator of G protein signaling 11)", "migration robust z-score": 1.08, "migration class with cell-count check": "migration z between -2 and 2; enough cells", "nuclei per well, duplicate mean": 6244, "call": "inactive"}
{"Gene": "CDC50A (cell division cycle 50 P4-ATPase accessory subunit A)", "migration robust z-score": 0.03, "migration class with cell-count check": "migration z between -2 and 2; enough cells", "nuclei per well, duplicate mean": 6640, "call": "inactive"}
{"Gene": "CHAF1B (chromatin assembly factor 1 subunit B)", "migration robust z-score": -0.78, "migration class with cell-count check": "migration z between -2 and 2; enough cells", "nuclei per well, duplicate mean": 4120, "call": "inactive"}
{"Gene": "PRAF2 (PRA1 domain family member 2)", "migration robust z-score": 0.22, "migration class with cell-count check": "migration z between -2 and 2; enough cells", "nuclei per well, duplicate mean": 5147, "call": "inactive"}

Reprinted from above (2 entries):
{"Gene": "CDC50A (cell division cycle 50 P4-ATPase accessory subunit A)", "migration robust z-score": 0.03, "migration class with cell-count check": "migration z between -2 and 2; enough cells", "nuclei per well, duplicate mean": 6640, "call": "inactive"}
{"Gene": "CHAF1B (chromatin assembly factor 1 subunit B)", "migration robust z-score": -0.78, "migration class with cell-count check": "migration z between -2 and 2; enough cells", "nuclei per well, duplicate mean": 4120, "call": "inactive"}

Next records follow:
{"Gene": "SLC22A4", "migration robust z-score": 0.38, "migration class with cell-count check": "migration z between -2 and 2; enough cells", "nuclei per well, duplicate mean": 5058, "call": "inactive"}
{"Gene": "CABP2 (calcium binding protein 2)", "migration robust z-score": 0.82, "migration class with cell-count check": "migration z between -2 and 2; enough cells", "nuclei per well, duplicate mean": 7280, "call": "inactive"}
{"Gene": "RCCD1 (RCC1 domain containing 1)", "migration robust z-score": -0.36, "migration class with cell-count check": "migration z between -2 and 2; enough cells", "nuclei per well, duplicate mean": 4980, "call": "inactive"}
{"Gene": "DNAJB6 (DnaJ heat shock protein family (Hsp40) member B6)", "migration robust z-score": -0.02, "migration class with cell-count check": "migration z between -2 and 2; enough cells", "nuclei per well, duplicate mean": 6670, "call": "inactive"}
{"Gene": "ZNF616 (zinc finger protein 616)", "migration robust z-score": 2.79, "migration class with cell-count check": "migration z above 2; enough cells", "nuclei per well, duplicate mean": 6572, "call": "active"}
{"Gene": "XAGE2 (X antigen family member 2)", "migration robust z-score": -0.55, "migration class with cell-count check": "migration z between -2 and 2; enough cells", "nuclei per well, duplicate mean": 6653, "call": "inactive"}
{"Gene": "TPM3 (tropomyosin 3)", "migration robust z-score": 0.36, "migration class with cell-count check": "migration z between -2 and 2; enough cells", "nuclei per well, duplicate mean": 5632, "call": "inactive"}
{"Gene": "EMP1 (epithelial membrane protein 1)", "migration robust z-score": 0.06, "migration class with cell-count check": "migration z between -2 and 2; enough cells", "nuclei per well, duplicate mean": 6463, "call": "inactive"}
{"Gene": "MGST1 (microsomal glutathione S-transferase 1)", "migration robust z-score": 1.6, "migration class with cell-count check": "migration z between -2 and 2; enough cells", "nuclei per well, duplicate mean": 5908, "call": "inactive"}
